Laboratory results reported in the supplement of paper PMC10849652.
This is one part of the list.

The chains behind the UniProt entries cited, without tags or fusion partners. Where a name states a change or a piece, a line headed by the entry shows the natural chain unless it says otherwise.
UniProt Q7Z7L8: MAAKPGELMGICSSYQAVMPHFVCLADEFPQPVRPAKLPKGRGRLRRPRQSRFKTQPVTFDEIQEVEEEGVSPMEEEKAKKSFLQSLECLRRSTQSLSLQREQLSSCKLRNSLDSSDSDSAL
UniProt Q9NZ63: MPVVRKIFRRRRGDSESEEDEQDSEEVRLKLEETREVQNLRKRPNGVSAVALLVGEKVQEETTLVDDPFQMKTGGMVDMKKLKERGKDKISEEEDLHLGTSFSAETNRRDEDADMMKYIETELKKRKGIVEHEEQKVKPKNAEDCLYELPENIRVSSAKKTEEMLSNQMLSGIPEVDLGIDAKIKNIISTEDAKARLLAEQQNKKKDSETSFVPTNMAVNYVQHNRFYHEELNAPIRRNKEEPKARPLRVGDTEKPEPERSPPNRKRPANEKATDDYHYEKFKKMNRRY
UniProt A6NDU8: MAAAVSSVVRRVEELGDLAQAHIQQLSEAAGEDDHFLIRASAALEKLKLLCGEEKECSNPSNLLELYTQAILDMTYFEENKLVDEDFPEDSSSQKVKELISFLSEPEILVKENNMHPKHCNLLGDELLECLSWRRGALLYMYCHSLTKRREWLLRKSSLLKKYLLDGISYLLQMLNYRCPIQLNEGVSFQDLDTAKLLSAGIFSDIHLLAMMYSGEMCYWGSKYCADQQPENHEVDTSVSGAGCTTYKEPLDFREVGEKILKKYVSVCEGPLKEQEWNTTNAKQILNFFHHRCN
UniProt P47756, whole entry, looked up: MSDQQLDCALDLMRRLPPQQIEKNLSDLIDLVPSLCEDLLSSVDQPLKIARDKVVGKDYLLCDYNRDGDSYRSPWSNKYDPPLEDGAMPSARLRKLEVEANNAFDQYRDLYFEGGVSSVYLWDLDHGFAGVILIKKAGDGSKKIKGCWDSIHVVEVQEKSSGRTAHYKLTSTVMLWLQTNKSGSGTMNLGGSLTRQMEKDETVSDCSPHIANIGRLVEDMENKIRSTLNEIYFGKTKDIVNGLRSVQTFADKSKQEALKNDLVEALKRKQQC
UniProt Q8N5I9: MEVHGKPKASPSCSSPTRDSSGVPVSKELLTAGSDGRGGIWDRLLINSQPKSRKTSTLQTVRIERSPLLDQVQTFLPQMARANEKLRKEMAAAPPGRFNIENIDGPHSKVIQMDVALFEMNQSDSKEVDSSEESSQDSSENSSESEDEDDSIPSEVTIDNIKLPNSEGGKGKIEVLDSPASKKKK
UniProt Q5SQH8: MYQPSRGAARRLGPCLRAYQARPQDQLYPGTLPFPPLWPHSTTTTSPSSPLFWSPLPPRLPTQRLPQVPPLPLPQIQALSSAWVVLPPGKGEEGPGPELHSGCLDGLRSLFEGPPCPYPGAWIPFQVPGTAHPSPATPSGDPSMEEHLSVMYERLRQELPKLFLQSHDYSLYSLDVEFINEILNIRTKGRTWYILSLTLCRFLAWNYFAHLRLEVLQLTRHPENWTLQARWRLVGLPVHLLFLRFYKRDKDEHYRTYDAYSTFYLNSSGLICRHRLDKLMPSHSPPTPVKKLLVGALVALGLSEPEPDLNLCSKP
UniProt Q9NS00: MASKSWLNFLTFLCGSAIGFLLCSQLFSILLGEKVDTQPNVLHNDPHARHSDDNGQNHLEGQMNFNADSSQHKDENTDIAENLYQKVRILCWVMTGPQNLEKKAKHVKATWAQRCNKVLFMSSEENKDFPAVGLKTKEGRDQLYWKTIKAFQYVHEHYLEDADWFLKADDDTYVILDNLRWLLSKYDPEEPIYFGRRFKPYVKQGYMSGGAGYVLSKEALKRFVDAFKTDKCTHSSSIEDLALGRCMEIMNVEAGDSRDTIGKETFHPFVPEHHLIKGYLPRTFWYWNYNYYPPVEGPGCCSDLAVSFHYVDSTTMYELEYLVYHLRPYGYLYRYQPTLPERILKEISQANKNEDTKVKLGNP
UniProt Q9Y297: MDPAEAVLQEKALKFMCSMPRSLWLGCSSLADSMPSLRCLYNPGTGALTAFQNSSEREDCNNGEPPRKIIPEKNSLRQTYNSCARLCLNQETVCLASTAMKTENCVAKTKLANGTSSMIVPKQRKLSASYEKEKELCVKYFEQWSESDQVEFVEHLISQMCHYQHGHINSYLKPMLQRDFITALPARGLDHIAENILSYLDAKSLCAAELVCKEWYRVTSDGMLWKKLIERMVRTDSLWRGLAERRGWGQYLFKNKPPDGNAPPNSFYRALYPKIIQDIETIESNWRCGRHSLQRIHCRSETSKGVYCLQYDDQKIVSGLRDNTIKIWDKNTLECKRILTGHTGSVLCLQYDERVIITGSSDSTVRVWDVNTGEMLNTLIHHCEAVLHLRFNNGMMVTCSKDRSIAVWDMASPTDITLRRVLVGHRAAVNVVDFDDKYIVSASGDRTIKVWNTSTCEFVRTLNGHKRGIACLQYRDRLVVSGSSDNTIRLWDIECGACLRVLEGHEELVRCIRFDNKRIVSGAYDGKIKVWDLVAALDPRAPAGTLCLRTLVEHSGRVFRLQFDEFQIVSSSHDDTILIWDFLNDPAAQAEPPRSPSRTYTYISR
UniProt Q96GV9: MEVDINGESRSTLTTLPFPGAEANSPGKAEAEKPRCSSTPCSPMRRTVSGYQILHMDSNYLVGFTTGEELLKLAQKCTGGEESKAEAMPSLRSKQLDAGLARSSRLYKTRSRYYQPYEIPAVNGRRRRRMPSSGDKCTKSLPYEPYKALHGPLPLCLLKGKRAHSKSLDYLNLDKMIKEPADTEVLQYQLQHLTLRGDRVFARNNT
UniProt P04003: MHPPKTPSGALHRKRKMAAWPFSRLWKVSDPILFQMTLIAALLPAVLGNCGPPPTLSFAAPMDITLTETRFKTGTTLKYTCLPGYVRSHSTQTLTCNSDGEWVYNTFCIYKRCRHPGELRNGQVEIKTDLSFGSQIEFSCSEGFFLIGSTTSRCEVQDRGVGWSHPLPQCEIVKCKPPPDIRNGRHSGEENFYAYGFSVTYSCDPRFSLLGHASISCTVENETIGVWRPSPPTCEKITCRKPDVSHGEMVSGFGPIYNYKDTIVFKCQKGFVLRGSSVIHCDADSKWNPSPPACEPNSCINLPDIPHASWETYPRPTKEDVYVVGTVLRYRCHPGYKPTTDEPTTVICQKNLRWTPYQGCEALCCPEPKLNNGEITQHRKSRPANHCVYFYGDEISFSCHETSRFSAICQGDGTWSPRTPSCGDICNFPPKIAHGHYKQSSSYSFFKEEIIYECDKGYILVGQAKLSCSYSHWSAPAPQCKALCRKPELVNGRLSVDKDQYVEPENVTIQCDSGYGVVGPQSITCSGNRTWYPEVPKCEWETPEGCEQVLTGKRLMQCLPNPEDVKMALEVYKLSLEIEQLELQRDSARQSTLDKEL
UniProt Q9NQ89: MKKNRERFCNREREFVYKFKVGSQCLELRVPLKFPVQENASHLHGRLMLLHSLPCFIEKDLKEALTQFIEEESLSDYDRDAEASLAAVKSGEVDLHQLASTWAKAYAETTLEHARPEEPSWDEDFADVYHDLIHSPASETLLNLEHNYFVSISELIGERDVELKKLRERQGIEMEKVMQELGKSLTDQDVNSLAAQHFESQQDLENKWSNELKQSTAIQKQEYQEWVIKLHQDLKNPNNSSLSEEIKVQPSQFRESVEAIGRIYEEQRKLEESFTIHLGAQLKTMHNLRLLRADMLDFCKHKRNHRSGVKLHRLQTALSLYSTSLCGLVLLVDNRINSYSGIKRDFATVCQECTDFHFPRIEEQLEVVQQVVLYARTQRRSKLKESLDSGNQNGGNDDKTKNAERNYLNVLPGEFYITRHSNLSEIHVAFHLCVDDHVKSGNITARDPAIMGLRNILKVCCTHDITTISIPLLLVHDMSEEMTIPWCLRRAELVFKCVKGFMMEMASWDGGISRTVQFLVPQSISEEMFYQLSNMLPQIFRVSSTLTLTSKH
UniProt Q6PH81: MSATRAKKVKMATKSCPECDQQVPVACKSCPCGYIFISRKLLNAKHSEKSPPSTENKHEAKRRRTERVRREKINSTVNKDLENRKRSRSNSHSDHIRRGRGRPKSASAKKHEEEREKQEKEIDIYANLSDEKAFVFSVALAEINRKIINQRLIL
UniProt Q01518, whole entry, looked up: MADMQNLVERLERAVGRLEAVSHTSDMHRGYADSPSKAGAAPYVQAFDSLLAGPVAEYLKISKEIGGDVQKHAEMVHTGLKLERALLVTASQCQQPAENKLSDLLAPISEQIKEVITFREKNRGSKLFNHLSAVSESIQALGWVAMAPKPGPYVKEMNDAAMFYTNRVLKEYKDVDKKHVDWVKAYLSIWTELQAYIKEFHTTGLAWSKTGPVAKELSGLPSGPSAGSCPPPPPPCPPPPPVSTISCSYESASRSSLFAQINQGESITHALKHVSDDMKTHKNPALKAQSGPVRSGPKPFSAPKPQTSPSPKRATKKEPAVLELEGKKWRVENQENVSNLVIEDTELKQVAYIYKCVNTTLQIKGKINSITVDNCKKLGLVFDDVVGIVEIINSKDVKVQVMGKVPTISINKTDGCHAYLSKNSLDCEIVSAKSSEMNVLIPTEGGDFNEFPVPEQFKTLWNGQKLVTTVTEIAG
UniProt Q86Y37: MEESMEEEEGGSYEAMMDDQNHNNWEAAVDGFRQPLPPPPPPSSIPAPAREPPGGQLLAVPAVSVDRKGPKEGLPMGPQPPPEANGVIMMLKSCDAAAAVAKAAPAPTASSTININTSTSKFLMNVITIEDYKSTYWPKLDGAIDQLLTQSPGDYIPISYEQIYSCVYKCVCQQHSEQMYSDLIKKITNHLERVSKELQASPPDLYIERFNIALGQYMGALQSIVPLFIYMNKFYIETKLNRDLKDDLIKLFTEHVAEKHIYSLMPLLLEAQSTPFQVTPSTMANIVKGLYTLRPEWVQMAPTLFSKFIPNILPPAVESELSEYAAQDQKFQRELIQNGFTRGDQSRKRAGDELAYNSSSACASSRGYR
UniProt Q6ZRI6: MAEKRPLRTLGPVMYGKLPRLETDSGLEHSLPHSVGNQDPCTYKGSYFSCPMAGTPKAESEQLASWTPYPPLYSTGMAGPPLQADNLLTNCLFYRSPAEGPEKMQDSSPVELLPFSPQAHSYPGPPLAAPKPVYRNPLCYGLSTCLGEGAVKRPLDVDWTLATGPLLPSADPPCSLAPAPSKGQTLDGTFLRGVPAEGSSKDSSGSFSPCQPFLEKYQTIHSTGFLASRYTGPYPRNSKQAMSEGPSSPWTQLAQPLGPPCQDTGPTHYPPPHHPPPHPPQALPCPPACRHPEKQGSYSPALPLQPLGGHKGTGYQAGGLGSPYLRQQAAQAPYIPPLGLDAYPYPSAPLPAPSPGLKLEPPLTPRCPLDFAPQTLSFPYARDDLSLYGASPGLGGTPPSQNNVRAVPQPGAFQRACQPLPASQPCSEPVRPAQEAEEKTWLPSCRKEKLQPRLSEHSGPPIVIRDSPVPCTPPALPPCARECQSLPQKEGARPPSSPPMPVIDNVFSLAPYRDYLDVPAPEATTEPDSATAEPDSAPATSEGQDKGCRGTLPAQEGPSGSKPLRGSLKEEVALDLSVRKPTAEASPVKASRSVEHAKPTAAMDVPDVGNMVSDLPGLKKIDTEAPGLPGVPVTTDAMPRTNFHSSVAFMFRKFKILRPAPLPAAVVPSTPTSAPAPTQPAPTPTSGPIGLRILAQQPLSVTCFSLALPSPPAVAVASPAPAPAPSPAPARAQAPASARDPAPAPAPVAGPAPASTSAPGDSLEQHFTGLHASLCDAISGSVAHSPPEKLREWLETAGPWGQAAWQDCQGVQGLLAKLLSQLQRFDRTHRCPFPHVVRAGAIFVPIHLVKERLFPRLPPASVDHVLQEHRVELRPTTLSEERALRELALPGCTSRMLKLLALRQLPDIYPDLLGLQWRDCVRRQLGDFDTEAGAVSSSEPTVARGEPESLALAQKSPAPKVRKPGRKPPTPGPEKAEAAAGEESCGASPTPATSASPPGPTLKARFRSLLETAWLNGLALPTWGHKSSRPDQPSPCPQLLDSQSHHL
UniProt Q9Y426: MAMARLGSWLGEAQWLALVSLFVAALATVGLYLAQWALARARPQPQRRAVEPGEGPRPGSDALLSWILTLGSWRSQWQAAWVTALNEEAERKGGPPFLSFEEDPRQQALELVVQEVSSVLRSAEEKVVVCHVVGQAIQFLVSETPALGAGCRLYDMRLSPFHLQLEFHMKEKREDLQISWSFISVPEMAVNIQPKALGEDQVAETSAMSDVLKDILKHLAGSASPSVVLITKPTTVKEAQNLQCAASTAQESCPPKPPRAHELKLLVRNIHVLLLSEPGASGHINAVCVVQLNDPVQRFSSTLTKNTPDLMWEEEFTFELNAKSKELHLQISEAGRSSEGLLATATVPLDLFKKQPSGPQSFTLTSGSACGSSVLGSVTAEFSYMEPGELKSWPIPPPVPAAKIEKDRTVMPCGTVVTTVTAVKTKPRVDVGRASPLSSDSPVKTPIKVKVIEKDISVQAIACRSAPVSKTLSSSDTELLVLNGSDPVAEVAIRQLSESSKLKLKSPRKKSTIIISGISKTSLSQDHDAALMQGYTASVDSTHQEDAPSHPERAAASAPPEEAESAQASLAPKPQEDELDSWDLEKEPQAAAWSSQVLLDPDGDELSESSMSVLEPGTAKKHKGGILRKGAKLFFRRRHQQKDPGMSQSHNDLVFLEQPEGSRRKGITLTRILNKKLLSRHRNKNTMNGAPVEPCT

Tests used:
Test in all cases: log2 fold change, soluble protein after heating vs DMSO (PISA); higher = thermal stabilisation; K562 lysate, 10 uM; active = over 0.2 and 3.5 SD of the protein, either way, in both replicates (recomputed)
[1] = compound: C=CC(=O)N1CCC[C@@H](n2nc(-c3ccc(Oc4ccccc4)cc3)c3c(N)ncnc32)C1 [ibrutinib]
How it was run: (§1)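 Log-two fold change in thermal stability relative to solvent controls is reported from duplicates. For each sample, crude K562 extract from dounce-homogenised pellets in PBS pH 7.4 with 1 mM MgCl2, at 1 mg/mL protein, was treated with 10 μM compound for 30 min. Aliquots heated for 3 min across 48°C-58°C were pooled, brought to 0.5% NP-40 at 4°C and cleared at 21,000xg for 90 min. The supernatant was quantified by TMTpro 16plex LC-MS/MS with channel sums equalised.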

[2] = compound: CC(=O)c1cnc2ccc(-c3cc(Cl)c(O)c(Cl)c3)nc2c1N[C@H]1CC[C@H](CN(C)C)CC1
How it was run: as §1

[3] = compound: CC(C)(C)Cn1c(N)nc2ccc(-c3[nH]c(C(C)(C)C)nc3-c3ccc(F)cc3)nc21 [ralimetinib]
How it was run: as §1

[4] = compound: CC(C)(O)CC(=O)NCCn1ccc2ncnc(Nc3ccc(Oc4cccc(C(F)(F)F)c4)c(Cl)c3)c21
How it was run: as §1

[5] = compound: CC(C)C1=C2N=C(C=C(N2N=C1)NCC3=CC=CC=C3)NCCCCCCN
How it was run: as §1

[6] = compound: CC1=C(C(CC(=O)N1)C2=CC=C(C=C2)C(F)(F)F)C(=O)NC3=C(C=C4C(=C3)C=NN4)F
How it was run: as §1

[7] = compound: CC1=C(C2=C(C=C1)C(=O)C3=CC=CC=C3N2CCCN)C
How it was run: as §1

[8] = compound: CC1=C(C=C(C=C1)NC(=O)C2=CC(=CC=C2)C(C)(C)C#N)NC3=CC4=C(C=C3)N=CN(C4=O)C
How it was run: as §1

[9] = compound: CC1=C(C=C(C=C1)NC(=O)C2=CC(=CC=C2)N(C)C)NC(=O)C3=CC=C(C=C3)O
How it was run: as §1

[10] = compound: CC1=CC=C(C=C1)SC2=C3C=C(SC3=CN=C2)C(=O)N
How it was run: as §1

Measured: log2 fold change

CAPZA2 (UniProt P47755)
inactive: [1] 0.003 | [2] 0.021 | [3] 0.034 | [4] 0.003 | [5] -0.015 | [6] -0.001 | [7] -0.037 | [8] 0.02 | [9] 0.005 | [10] -0.01

C11orf96 (UniProt Q7Z7L8)
inactive: [1] 0.097 | [2] 0.111 | [3] 0.1 | [4] 0 | [5] -0.057 | [6] -0.119 | [7] -0.027 | [8] -0.015 | [9] 0.062 | [10] -0.007

C9orf78 (UniProt Q9NZ63)
inactive: [1] 0.029 | [2] 0.014 | [3] -0.004 | [4] 0.067 | [5] -0.014 | [6] -0.039 | [7] -0.001 | [8] -0.044 | [9] 0.01 | [10] -0.009

C5orf51 (UniProt A6NDU8)
inactive: [1] 0.052 | [2] -0.008 | [3] 0.001 | [4] -0.027 | [5] 0.014 | [6] -0.005 | [7] 0.004 | [8] 0.042 | [9] 0.042 | [10] -0.001

C18orf32 (UniProt Q8TCD1)
inactive: [1] 0.069 | [2] -0.014 | [3] 0.053 | [4] -0.048 | [5] -0.069 | [6] -0.078 | [7] -0.021 | [8] 0.074 | [9] -0.056 | [10] 0.032

C9orf72 (UniProt Q96LT7)
inactive: [1] -0.079 | [2] -0.004 | [3] -0.011 | [4] -0.021 | [5] 0.025 | [6] -0.066 | [7] 0.014 | [8] -0.003 | [9] -0.023 | [10] 0.038

C19orf54 (UniProt Q5BKX5)
inactive: [1] 0.041 | [2] 0.003 | [3] -0.018 | [4] -0.055 | [5] 0.028 | [6] 0.012 | [7] 0.06 | [8] -0.041 | [9] 0.013 | [10] 0.063

CALU isoform 4 (UniProt O43852)
inactive: [1] 0.047 | [2] 0.003 | [3] -0.04 | [4] 0.018 | [5] -0.039 | [6] -0.048 | [7] 0.032 | [8] 0.032 | [9] -0.038 | [10] -0.003

CAPZA1 (UniProt P52907)
inactive: [1] 0.013 | [2] -0.008 | [3] 0.028 | [4] -0.037 | [5] -0.032 | [6] -0.009 | [7] -0.03 | [8] 0.034 | [9] -0.006 | [10] -0.034

CAPZB isoform 2 (UniProt P47756)
inactive: [1] -0.103 | [2] -0.012 | [3] -0.041 | [4] -0.032 | [5] -0.042 | [6] -0.029 | [7] 0.028 | [8] 0.028 | [9] -0.01 | [10] -0.016

C12orf29 (UniProt Q8N999)
inactive: [1] -0.027 | [2] 0.052 | [3] -0.021 | [4] 0.003 | [5] -0.001 | [6] -0.04 | [7] 0.005 | [8] 0.018 | [9] 0.032 | [10] 0.006

C12orf45 (UniProt Q8N5I9)
inactive: [1] 0.027 | [2] 0.003 | [3] 0.005 | [4] 0.014 | [5] 0.033 | [6] -0.021 | [7] -0.02 | [8] -0.018 | [9] 0.02 | [10] -0.043

C6orf136 isoform 4 (UniProt Q5SQH8)
inactive: [2] 0.016 | [3] 0 | [4] 0.016 | [5] -0.181 | [7] -0.226 | [9] 0.028 | [10] 0.12

C1GALT1 (UniProt Q9NS00)
inactive: [2] 0.101 | [3] -0.072 | [4] 0.032 | [5] 0.148 | [7] 0.024 | [8] 0 | [9] 0.041 | [10] -0.085

BTRC (UniProt Q9Y297)
inactive: [1] 0.026 | [2] 0.012 | [3] 0.068 | [4] -0.033 | [5] 0.045 | [6] 0.015 | [9] 0.075 | [10] -0.002

C1orf174 (UniProt Q8IYL3)
inactive: [1] -0.02 | [2] -0.117 | [3] -0.151 | [4] 0.066 | [7] 0.036 | [8] 0.019 | [9] 0.054 | [10] -0.117

C1orf131 isoform 5 (UniProt Q8NDD1)
inactive: [2] 0.041 | [3] 0.06 | [4] -0.056 | [5] 0.028 | [6] -0.016 | [7] -0.071 | [8] 0.08 | [9] 0.025 | [10] -0.043

C5orf30 (UniProt Q96GV9)
inactive: [1] -0.003 | [3] -0.041 | [4] -0.036 | [5] -0.128 | [6] -0.14 | [7] 0.007 | [8] -0.045 | [9] -0.061

C4A (UniProt P0C0L4)
inactive: [1] -0.024 | [2] 0.025 | [3] 0.041 | [4] -0.037 | [5] 0.017 | [7] -0.058 | [8] 0.065 | [9] 0.029 | [10] -0.071

C16orf70 (UniProt Q9BSU1)
inactive: [1] -0.048 | [2] -0.011 | [3] 0.034 | [4] 0.031 | [5] -0.068 | [7] -0.043 | [8] 0 | [9] 0.058 | [10] -0.024

C3AR1 (UniProt Q16581)
inactive: [1] 0.018 | [6] 0.001 | [8] -0.074

C9orf85 isoform 1 (UniProt Q96MD7)
inactive: [1] 0.065 | [3] 0.023 | [4] -0.051 | [6] 0 | [7] -0.046 | [9] 0.023

CABIN1 (UniProt Q9Y6J0)
inactive: [1] -0.068 | [2] -0.029 | [3] -0.037 | [4] 0 | [5] -0.025 | [6] -0.148 | [7] -0.014 | [9] 0.085 | [10] 0.074

C4BPA (UniProt P04003)
inactive: [2] -0.037 | [3] -0.049 | [4] 0.001 | [5] 0.001 | [6] 0.019 | [7] 0.055 | [8] -0.017 | [9] 0.054 | [10] -0.078

C12orf4 (UniProt Q9NQ89)
inactive: [1] -0.051 | [2] -0.089 | [5] 0.146 | [8] -0.31 | [10] -0.091

C6orf120 (UniProt Q7Z4R8)
inactive: [1] 0.013 | [2] -0.017 | [5] -0.003 | [7] 0.015 | [10] 0.126

C16orf87 (UniProt Q6PH81)
inactive: [1] 0.068 | [2] 0.034 | [3] 0.018 | [4] 0.042 | [7] 0.012 | [8] 0.067 | [9] 0.104 | [10] 0.092

CAP1 isoform 2 (UniProt Q01518)
inactive: [1] -0.005 | [3] -0.051 | [4] -0.16 | [5] 0.049 | [7] -0.062 | [8] -0.122 | [9] -0.103

CACUL1 (UniProt Q86Y37)
inactive: [2] 0.164 | [3] -0.023 | [4] 0.073 | [5] 0.027 | [7] -0.165 | [8] -0.126 | [9] 0.115 | [10] -0.09

C15orf39 (UniProt Q6ZRI6)
inactive: [1] -0.141 | [3] -0.005 | [4] -0.029 | [5] -0.06 | [6] 0.104 | [7] 0.039 | [8] -0.03 | [9] 0.019

C1orf109 (UniProt Q9NX04)
inactive: [2] 0.019 | [3] 0.084 | [4] 0.081 | [5] 0.149 | [6] 0.028 | [7] -0.124 | [8] -0.072 | [9] 0.106 | [10] 0.018

Random excerpt: two entries already listed.
CAP1 isoform 2 (UniProt Q01518)
inactive: [1] -0.005 | [3] -0.051 | [4] -0.16 | [5] 0.049 | [7] -0.062 | [8] -0.122 | [9] -0.103

C16orf87 (UniProt Q6PH81)
inactive: [1] 0.068 | [2] 0.034 | [3] 0.018 | [4] 0.042 | [7] 0.012 | [8] 0.067 | [9] 0.104 | [10] 0.092

Following part

C2CD2 (UniProt Q9Y426)
inactive: [1] 0.063 | [3] 0.04 | [4] -0.117 | [5] -0.08 | [7] -0.041 | [8] -0.033 | [9] -0.068

CAPNS1 (UniProt K7ES78)
inactive: [2] 0.028 | [3] 0.061 | [4] -0.196 | [5] -0.101 | [7] 0.025 | [8] 0.148 | [9] -0.105 | [10] -0.075
